No constants are given. Whether binding was seen depends on the method and setting. Some entries that bind do so weakly or less than the wild type.
Molecular target: HLA-G2 standard protein (human) (UniProt P17693)
Test: immunoblot, antibody at 1.0 ug/ml

binding: binds
B1: monoclonal antibody (YWHG-3) against HLA-G1, -G2, -G5 and HLA-G6 isoforms (antibody, IgG1, V domains shown)
VH: LVQLQQSGGGLVKPGGSLKLSCAASGFTFSDYNMYWVRQTPEKRLEWVATISDGGRSTFYLDSVKGRFTISRDNAKNNLYLQINNLKSEDTAIYYCVRDDYWGQGTTLTVSS
VL: DIMMTQTPLSLPVSLGDQASISCRSSQSLVHSTGNTFLNWYLQKPGQSPKLLIYKVSNRFSGVSDRFSGSGSGTDFTLKIRRVEAEDLGVYFCSQSTHVPWTFGGGTKLEIK
notes: Used biotin-labelled in the HLA-G5 ELISA and FITC-labelled in flow cytometry; also called hybridoma CCTCC NO: 202121

From patent US20250034261A1 (TAIZHOU ENZE MEDICAL CENTER GROUP, published 2025)
